Measured values taken from the supplement of paper PMC9254222.
Whole data set: some 1,100 compounds, median “Renilla luciferase signal (cell health) relative to plate median” near 0.97, cut for the highest 2% near 1.6. This is a selection; strong and weak results do not stand in their true shares.

System: HEK293T (UBE3A T485A transfected, BAR Wnt reporter)
Test: Renilla luciferase signal (cell health) relative to plate median (fold (linear ratio)); higher = higher Renilla signal
Details: 24 h
Method in brief: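 HEK293T cells were grown in DMEM with 10% FBS at 37°C and 5% CO2, at 4500 cells/well in white 384-well plates. They were transfected with a BAR firefly luciferase Wnt reporter, TK-Renilla and an expression plasmid using Fugene 6. Four hours later, robots dosed the chemicals at 0.01–100 uM for 24 h, followed by Dual-Glo luciferase readout. Wnt activity (firefly/Renilla ratio) and cell health (raw Renilla) were median-centred per plate, averaged over four biological replicates.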

Compound	Renilla luciferase signal (concentration: 0.1 uM)	Renilla luciferase signal (concentration: 1 uM)	Renilla luciferase signal (concentration: 10 uM)	Renilla luciferase signal (concentration: 100 uM)	Renilla luciferase signal (concentration: 0.01 uM)
CCCc1ccccc1 [Propylbenzene]	0.797	0.829	0.888	0.989	
Cc1ccc(O)cc1 [p-Cresol]	0.884	0.892	0.87	1.05	
Cn1cnc([N+](=O)[O-])c1Sc1ncnc2nc[nH]c12 [Azathioprine]	0.939	0.983	0.605	0.0481	
Cn1cc[nH]c1=S [Methimazole]				2.27	
CN(C)c1ccc(N=NS(=O)(=O)[O-])cc1.[Na+] [Fenaminosulf]	0.694	0.672	0.652	0.433	
CC1=C(C)S(=O)(=O)CCS1(=O)=O [Dimethipin]	0.84	0.785	0.853	0.224	
C[C@]12CC[C@@H]3c4ccc(O)cc4CC[C@H]3[C@@H]1CCC2=O [Estrone]	0.871	1.02	0.931	0.71	
CC(=O)S[C@H](C(=O)N[C@H]1Cc2ccccc2[C@H]2CCC[C@@H](C(=O)O)N2C1=O)C(C)C [Ilepatril]	0.879	0.836	0.857	1.53	
OCCNCCO [Diethanolamine]	0.974	0.928	0.967	1.08	
NC(=O)N/N=C/c1ccc([N+](=O)[O-])o1 [Nitrofurazone]	1.03	1.13	1.44	0.334	
CCOC(=O)O[C@H](C)OC(=O)c1ccc2c(c1)cc(C(=O)NC1CCN(C(C)C)CC1)n2Cc1cc(-c2ccc(Cl)s2)on1.Cl	1.22	1.16	1.33	0.031	
C=CCOC(Cn1ccnc1)c1ccc(Cl)cc1Cl (stereo not drawn) [Imazalil]	0.885	0.939	0.777	0.0667	0.797
CC(C)COC(=O)CCCCC(=O)OCC(C)C [Diisobutyl adipate]	1.02	0.794	0.992	1.12	
Cc1cc(Nc2cc(N3CCN(C)CC3)nc(Sc3ccc(NC(=O)C4CC4)cc3)n2)n[nH]1	0.649	0.492	0.404	0.0104	0.642
CC1=C(/C=C/C(C)=C/C=C/C(C)=C/C(=O)O)C(C)(C)CCC1 [all-trans-Retinoic acid]	0.713	0.788	0.682	0.081	
O=C(NO)C1(NS(=O)(=O)c2ccc(Oc3ccc(F)cc3)cc2)CCOCC1	0.742	0.782	0.804	0.169	
O=c1[nH]cnc2c1ncn2[C@H]1CC[C@@H](CO)O1 [2',3'-Dideoxyinosine]	0.826	0.934	0.911	1.12	
O=C(O)c1ccccc1-n1cc(C(=O)O)c(=O)c2cc(Nc3c(F)cc(F)cc3Cl)c(Cl)cc21	0.808	0.866	0.845	1.14	
COC(=O)CC(=O)OC [Dimethyl malonate]	1.17	1.21	1.04	1.24	
CCCCc1ccc2c(n1)[C@@H](c1ccc(OC)cc1C[C@H](C)C(=O)[O-])[C@H](C(=O)[O-])[C@H]2c1ccc2c(c1)OCO2.[Na+].[Na+]	0.914	0.941	0.924	0.813	
O=c1[nH]cc(F)c(=O)[nH]1 [5-Fluorouracil]	1.08	1.13	0.346	0.231	

Filtered by structure, the compounds so far containing a nitro group on carbon.
Compound	Renilla luciferase signal (concentration: 0.1 uM)	Renilla luciferase signal (concentration: 1 uM)	Renilla luciferase signal (concentration: 10 uM)	Renilla luciferase signal (concentration: 100 uM)	Renilla luciferase signal (concentration: 0.01 uM)
Cn1cnc([N+](=O)[O-])c1Sc1ncnc2nc[nH]c12 [Azathioprine]	0.939	0.983	0.605	0.0481	
NC(=O)N/N=C/c1ccc([N+](=O)[O-])o1 [Nitrofurazone]	1.03	1.13	1.44	0.334	

More compounds:

Compound	Renilla luciferase signal (concentration: 0.1 uM)	Renilla luciferase signal (concentration: 1 uM)	Renilla luciferase signal (concentration: 10 uM)	Renilla luciferase signal (concentration: 100 uM)	Renilla luciferase signal (concentration: 0.01 uM)
Sc1nc2ccccc2s1 [2-Mercaptobenzothiazole]	0.981	0.791	0.768	0.92	
CC(O)CO (stereo not drawn) [1,2-Propylene glycol]	1.33	1.18	1.24	1.42	
COc1cc(-c2nc(NC(=O)c3cc4cc(C)cc(C)c4n3CC(=O)O)sc2CCC2CCCCC2)c(OC)cc1Cl.O=C(O)C(F)(F)F	1.03	0.976	0.93	0.0588	
CC(=O)[C@@]1(O)CC[C@H]2[C@@H]3CCC4=CC(=O)CC[C@]4(C)[C@H]3CC[C@@]21C [17alpha-Hydroxyprogesterone]	1.03	0.973	0.95	0.967	
CCCCOCCOCCOCc1cc2c(cc1CCC)OCO2 [Piperonyl butoxide]	1.07	0.901	1.05	1.04	1.26
CCc1c2c(nc3ccc(OC(=O)N4CCC(N5CCCCC5)CC4)cc13)-c1cc3c(c(=O)n1C2)COC(=O)C3(O)CC (stereo not drawn) [Irinotecan]	0.663	0.663	0.302	0.414	0.654
Oc1ccc2ccccc2c1 [2-Naphthalenol]	1.11	1.1	1.14	0.666	
Cc1cc(SC2=C(O)C[C@@](CCc3ccc(N)cc3)(C(C)C)OC2=O)c(C(C)(C)C)cc1CO	0.926	1.01	0.952	0.324	
CCCCCCCCCCCCCCOS(=O)(=O)[O-].[Na+] [Sodium myristyl sulfate]	1.07	0.951	1.15	0.42	
Oc1ccc(C2COc3cc(O)ccc3C2)cc1 (stereo not drawn) [Equol]	1.02	0.905	0.984	0.696	0.939
NNC(=O)c1ccncc1 [Isoniazid]	1.37	0.946	1.09	1.35	
CCCCOC(=O)c1ccc(O)cc1 [Butylparaben]	0.848	0.85	0.756	0.258	
O=C(O)[C@H](O)[C@@H](O)C(=O)O [L-Tartaric acid]	0.852	0.869	0.956	1.04	
CC1=CC(=O)CC(C)(C)C1 [Isophorone]	1.01	1.07	1.05	1.17	
CC(=O)OCCOCCOCCOC(C)=O [Triethylene glycol diacetate]	0.81	0.816	0.908	1.08	
CCC(C)OC(=O)N1CCCCC1CCO (stereo not drawn) [Icaridin]	0.727	0.873	0.824	1.16	0.749
CC(C)(C)c1ccccc1 [tert-Butylbenzene]	1.02	1.02	1.12	1.13	
COC(=O)c1ccccc1C(=O)O [Monomethyl phthalate]	0.982	0.926	1.04	1.34	0.97
C/C=C/c1ccc(OC)cc1 [(E)-Anethole]	0.769	0.707	0.82	0.978	
COc1ccc(OC(F)(F)F)cc1CN[C@H]1CCCN[C@H]1c1ccccc1	0.933	0.875	0.559	0.0333	
